According to PubChem BioAssay AID504648 (National Center for Advancing Translational Sciences (NCATS), 2011):
Among all 390,000 compounds or so, about 610 (0.16%) were called active. This list was built around the results that the source calls inconclusive (neither active nor inactive); the mix of calls is not that of the screen. The call rests on the fitted dose curve; in most records, active means well fitted inhibition curve with a large enough effect; inconclusive means small, poorly fitted or top-dose-only effect, or effect the other way, or another doubt; inactive means no such curve, though single readings can be large or run the other way. A potency beside an inconclusive call is a rough fit, not a confirmed value.
On the % scale 0 is the no-effect control and ±100 the full control effect; potency means the concentration at half of the fitted maximal effect.

Assay: Nrf2 qHTS screen for inhibitors: counterscreen for cytotoxicity
Conditions: A549 ARE-Fluc cells, CellTiter-Fluor viability, 18-24 h; activity change, negative = cytotoxicity: at 46 µM (top of the series)
Outline: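 A549 ARE_Fluc cells in 5% FBS OPTI-MEM were exposed to compounds in concentration-response for 18-24 h at 37 deg C. Viability was read by CellTiter-Fluor fluorescence (Ex 405/Em 525) after 30 min, before the luciferase read.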
In the case of `CN(C)c1ccc(N=Nc2ccc(S(N)(=O)=O)cc2)cc1`, the Potency is reported as inconclusive: 18.4 µM [falling, partial curve].
In the case of `CCOc1ccc(NC(=S)NC(=O)/C=C/c2ccc(Br)cc2)c([N+](=O)[O-])c1`, the Potency is reported as inconclusive: 29.1 µM [falling, partial curve, poor fit].
With `CCOc1ccc(N2C(=O)c3[nH]nc(-c4ccc(OC)cc4)c3C2c2cccs2)cc1` (configuration not stated) the Potency was inconclusive: 18.4 µM [falling, partial curve, poor fit].
With `N#C/C(=N\Nc1cccc(C(F)(F)F)c1)C(=O)c1ccsc1` the “activity change, negative = cytotoxicity” value was inactive: -17.8%.
For `N#C/C(=C\c1cc(Cl)cc(Cl)c1O)C(=O)NC1CCCCC1`, the “activity change, negative = cytotoxicity” value was inactive: 5.62%.
With `COCCCNC(=O)c1ccc2c3c(onc13)-c1ccccc1C2=O` the Potency was inconclusive: 18.4 µM [falling, single point].
For `Cc1ccc(C)c(Nc2nnc(-c3ccc(C)c(S(=O)(=O)NCC4CCCO4)c3)c3ccccc23)c1` (configuration not stated), the “activity change, negative = cytotoxicity” value was inactive: -11.8%.
For `COc1ccc(/C=C\C(=O)O[C@@H]2C(O)C(O[C@@H]3OC(C)[C@H](O[C@@H]4OCC(O[C@H]5O[C@H](CO)[C@@H](O)C(O)C5O)C(O)C4O)C(O)C3O)[C@H](OC(=O)[C@]34CCC(C)(C)C[C@@H]3C3=CCC5[C@@]6(C)CC(O)C(O[C@@H]7OC(CO)C(O)[C@H](O)[C@H]7O)[C@@](C)(C(=O)O)C6CC[C@@]5(C)[C@]3(CO)CC4)O[C@H]2C)cc1` (some centres not stated), the Potency was inconclusive: 20.6 µM [falling, single point].
With `CCCN1C(=O)/C(=C/c2cc(C)n(C)c2C)SC1=Nc1ccc(OC)cc1` the Potency was inconclusive: 23.1 µM [falling, single point].
With `CCc1cccc(NC(=O)c2ccc(NC(=O)N3CCSc4ncccc43)cc2)c1` the “activity change, negative = cytotoxicity” value was inactive: -9.63%.
For `CCc1nnc(SCC(=O)Nc2ccc(N3CCOCC3)cc2)n1C`, the Potency was inconclusive: 23.1 µM [activator, partial curve, poor fit].
With `CC(=O)c1cccc(NS(=O)(=O)c2cc3c(cc2C)N(C(C)=O)CCO3)c1` the Potency was inconclusive: 29.1 µM [falling, single point].
With `C#CCOc1ccc(C2C3=C(COC3=O)Nc3cc4c(cc32)OCO4)cc1OC` (configuration not stated) the Potency was inconclusive: 1.03 µM [falling, full curve].
With `CCCOC(=O)c1c(NC(=O)/C=C/c2cnn(C)c2C)sc(C(=O)OC)c1C` the “activity change, negative = cytotoxicity” value was inactive: -4.44%.
For `CC1=C(C(=O)OC2CCCCCCC2)C(c2cc3c(cc2Br)OCO3)CC(=O)N1` (configuration not stated), the Potency was inconclusive: 25.9 µM [falling, single point].
For `CC1(C)CC(=O)C2=C(C1)NC1=C(C(=O)c3ccccc31)C2c1ccc(Cl)cc1` (configuration not stated), the Potency was inconclusive: 29.1 µM [falling, single point].
In the case of `Cc1ccc(C(NC(=O)NC(C)c2ccccc2)C(Cl)(Cl)Cl)cc1F` (configuration not stated), the Potency is reported as inconclusive: 29.1 µM [falling, single point].
In the case of `C=CCc1cccc(/C=N/NC(=O)CNc2ccccc2)c1O`, the Potency is reported as inconclusive: 11.6 µM [falling, partial curve, poor fit].
For `COc1ccc(CCN2C(=O)c3[nH]nc(-c4ccccc4O)c3C2c2ccc(OC)c(OC)c2)cc1` (configuration not stated), the “activity change, negative = cytotoxicity” value was inactive: -14%.
With `CCCn1c(=N)c(S(=O)(=O)c2ccc(F)cc2)cc2c(=O)n3ccccc3nc21` the Potency was inconclusive: 18.4 µM [falling, partial curve, poor fit].
For `COCC(=O)N/N=C\c1ccc(OC/C=C/c2ccccc2)c(OC)c1`, the Potency was inconclusive: 32.6 µM [activator, partial curve, poor fit].
In the case of `CCOc1ccc(-n2c(SCC(N)=O)nc3c(oc4ccccc43)c2=O)cc1`, the “activity change, negative = cytotoxicity” value is reported as inactive: -5.18%.
With `CC[n+]1cc(C)ccc1/C=C/c1ccc(N(C)C)cc1` the Potency was active: 9.2 µM.
For `C=CCn1c(SCC(=O)NC(C)(C)C)nnc1-c1ccccc1O`, the Potency was inconclusive: 13 µM [activator, partial curve, poor fit].
For `Cc1ccc(C)c(-n2ccnc2SCC(=O)O)c1`, the “activity change, negative = cytotoxicity” value was inactive: -4.52%.
With `Cc1cc(C)c(OCC(=O)Nc2ccc(S(=O)(=O)N3CCCC3)cc2)c(C)c1` the activity change, negative = cytotoxicity was inconclusive: 27.1% [activator].
In the case of `O=C(Nc1nc2ccccc2s1)c1c(F)cccc1Cl`, the “activity change, negative = cytotoxicity” value is reported as inactive: -1.96%.
With `Cc1cccc(NC(=O)CSc2nnc(-c3ccco3)c(-c3ccco3)n2)c1C` the Potency was inconclusive: 29.1 µM [falling, single point].
In the case of `O=C(Nc1cc(Sc2ccccn2)cc([N+](=O)[O-])c1)c1ccc(Cl)cc1`, the Potency is reported as inconclusive: 9.2 µM [falling, partial curve].
In the case of `N#CC(c1nc2ccccc2nc1OCCO)S(=O)(=O)c1ccccc1` (configuration not stated), the Potency is reported as inconclusive: 14.6 µM [falling, partial curve, poor fit].
With `Cc1ccc(-n2c(O)c(C=Nc3ccc(S(=O)(=O)Nc4ncccn4)cc3)c3ccccc3c2=O)cc1C` the Potency was inconclusive: 4.11 µM [falling, full curve].
With `Cn1c(SCc2nc(-c3ccc(Br)cc3)no2)nnc1-c1ccco1` the Potency was inconclusive: 25.9 µM [falling, single point].
In the case of `COc1ccc(CNC(=O)Nc2cn(CC(C)C)c(=O)c3ccccc23)cc1`, the “activity change, negative = cytotoxicity” value is reported as inactive: -0.0284%.
For `Cc1cc(Cl)ccc1OCC(=O)N1CCC(c2nc3ccccc3s2)CC1`, the “activity change, negative = cytotoxicity” value was inactive: -24.4%.
With `COc1cc2ccccc2cc1C(=O)Nc1nccs1` the “activity change, negative = cytotoxicity” value was inactive: 6.45%.
With `COc1cccc2c1C(=O)c1c(O)c3c(c(O)c1C2=O)CC(O)(C(C)=NNC(=O)c1ccc(Cl)c(Cl)c1)CC3OC1CC(N)C(O)C(C)O1` (configuration not stated) the Potency was active: 11.6 µM.
In the case of `COc1ccc(CNC(=O)C[C@H]2C[C@H](C(=O)N3CCCCC3)[C@@]3(CCc4ccccc4)c4[nH]c5ccc(Cl)cc5c4CCN3C2=O)cc1OC`, the Potency is reported as inconclusive: 18.4 µM [falling, partial curve, poor fit].
With `CC(C)N(Cc1ccccc1)C(=O)c1cnc2n(c1=O)CCS2` the Potency was inconclusive: 8.2 µM [activator, partial curve].
With `O=C(C(=O)N1CC=C(c2ccccc2)CC1)c1c[nH]c2ccccc12` the “activity change, negative = cytotoxicity” value was inactive: 7.73%.
With `CN(C)S(=O)(=O)n1ccnc1` the “activity change, negative = cytotoxicity” value was inactive: -1.94%.
With `O=C(Nc1cccc(S(=O)(=O)N2CCCCCC2)c1)c1cncc(Br)c1` the “activity change, negative = cytotoxicity” value was inactive: -10.5%.
For `S=C1NCN(Cc2cccnc2)CN1`, the “activity change, negative = cytotoxicity” value was inactive: 1.01%.
With `Cc1cc(=O)n(Cc2ccc(Cl)cc2)c2c1c(C)nn2-c1ccccc1` the “activity change, negative = cytotoxicity” value was inactive: 13.1%.
In the case of `N#Cc1nc(-c2ccc(COc3ccc(Cl)cc3)o2)oc1N1CCC(C(N)=O)CC1`, the “activity change, negative = cytotoxicity” value is reported as inactive: -19.8%.
For `O=C(Nc1cccc(C(F)(F)F)c1)c1cccnc1N1CCN(c2ccccc2)CC1`, the Potency was inconclusive: 14.6 µM [falling, single point].
With `COc1ccc(OC)c(C2=NS(=O)(=O)N(C)C(C(=O)Nc3ccc(F)cc3F)=C2)c1` the Potency was inconclusive: 16.4 µM [falling, partial curve, poor fit].
For `COc1cc2sc3ccc(C#Cc4ccccn4)cc3c(=O)c2cc1OC`, the “activity change, negative = cytotoxicity” value was inactive: 2.72%.
For `O=C(NCC(c1ccco1)S(=O)(=O)c1cccs1)c1ccc(F)c(F)c1` (configuration not stated), the “activity change, negative = cytotoxicity” value was inactive: -3.84%.
For `Cc1cccc(N(CC(O)CON=C2c3ccccc3-c3ccccc32)S(C)(=O)=O)c1` (configuration not stated), the Potency was inconclusive: 29.1 µM [falling, single point].
With `CCN1CCOC(=O)C1CC(=O)Nc1ccc(Br)cc1` (configuration not stated) the “activity change, negative = cytotoxicity” value was inactive: -1.01%.
For `O=C(CN1C(=O)CCSc2ccccc21)NC1CCCCC1`, the Potency was inconclusive: 29.1 µM [falling, single point].
In the case of `Cc1ccc(-n2nc(-c3ccco3)cc2C(=O)O)cc1`, the “activity change, negative = cytotoxicity” value is reported as inactive: -0.121%.
With `Oc1ccc2ccccc2c1N=Nc1ccc(F)cc1` the Potency was inconclusive: 14.6 µM [falling, partial curve].
With `O=C(CN1C(=O)C2(SCC(=O)N2c2ccc(F)c(F)c2)c2ccccc21)Nc1cccc(Cl)c1` (configuration not stated) the Potency was inconclusive: 23.1 µM [falling, single point].
In the case of `COc1ccc(/C=C2\C(=O)NC(=O)c3ccccc32)cc1OC`, the Potency is reported as inconclusive: 16.4 µM [falling, partial curve, poor fit].
In the case of `CCOC(=O)c1cnc2ccc(OC)cc2c1Nc1cccc(C(C)=O)c1`, the Potency is reported as inconclusive: 23.1 µM [falling, single point].
For `CCOc1ccc(C(=O)NCc2nc(-c3ccc(Cl)cc3)no2)cc1OCC`, the “activity change, negative = cytotoxicity” value was inactive: -5.78%.
With `COc1ccccc1-c1nnc(SCC(=O)c2ccc(C3CCCCC3)cc2)n1Cc1ccco1` the Potency was inconclusive: 16.4 µM [falling, single point].
For `CC(=O)c1ccc(N(CC(=O)NCC2CCCO2)C(=O)CCC(=O)Nc2cc(C)on2)cc1` (configuration not stated), the Potency was inconclusive: 0.517 µM [activator, full curve].
In the case of `Nc1ccc2c(c1)C(=O)C(=O)c1ccccc1-2`, the Potency is reported as inconclusive: 29.1 µM [falling, single point].
With `CCN(CC)CCNC1=NCCn2c1cc1cc(OC)ccc12` the Potency was inconclusive: 29.1 µM [falling, single point].
With `O=C(N/N=C/c1ccc(Br)s1)c1ccc([N+](=O)[O-])cc1` the Potency was inconclusive: 16.4 µM [falling, partial curve, poor fit].
For `CCN(CC)S(=O)(=O)c1cc(NC(=O)C(C)N(C)CC(=O)Nc2c(C)cccc2C)ccc1C` (configuration not stated), the Potency was inconclusive: 29.1 µM [falling, single point].
With `CC(C)CCNc1nc(N2CCCC2)c2c(c1C#N)CCN(C)C2` the Potency was inconclusive: 20.6 µM [falling, single point].
In the case of `Cc1ccc(C(=O)N(CCN2CCCCC2)CC2CCCN(C3CCCC3)C2)s1` (configuration not stated), the Potency is reported as inconclusive: 16.4 µM [falling, single point].
In the case of `Cc1nnc(SC(C)C(=O)Nc2ccc(Cl)cn2)n1Cc1ccccc1` (configuration not stated), the Potency is reported as inconclusive: 16.4 µM [falling, single point].
In the case of `O=C(O)C(Cc1ccccc1)N1C(=O)/C(=C/c2ccccc2)SC1=S` (configuration not stated), the “activity change, negative = cytotoxicity” value is reported as inactive: -8.31%.
